Experimental data reported in PubChem BioAssay AID504467 (National Center for Advancing Translational Sciences (NCATS), 2011).
The whole screen tested about 330,000 compounds, of which about 7,700 (2.3%) were called active. Inconclusive results, whose numbers are uncertain, are shown with a selection of clear calls. The call rests on the fitted dose curve; in most records, active means well fitted inhibition curve with a large enough effect; inconclusive means small, poorly fitted or top-dose-only effect, or effect the other way; inactive means flat fitted curve, though single readings scatter. Potencies beside an inconclusive call are fits to weak or partial responses and may not hold up.

assay: qHTS screen for small molecules that inhibit ELG1-dependent DNA repair in human embryonic kidney (HEK293T) cells expressing luciferase-tagged ELG1; conditions: HEK293T ELG1-luciferase reporter, luminescence, 16 h, DNA damage induced by 5-fluorouridine; series mostly up to 46.1 µM; further: nearly all actives have a fitted effect of over 55% in size
Description: NIH Molecular Libraries Probe Production Network [MLPCN] NIH Chemical Genomics Center [NCGC] MLPCN Grant: 1 R03 MH092164-01 Assay Provider: Kyungjae Myung, NHGRI, NIH Keywords: MLPCN, qHTS, NCGC, genotoxicity, cancer Assay Overview: Cancer cells divide rapidly compared to normal cells in the body. During cell division, cancer cells need to duplicate their genome by DNA replication. The failure of genome duplication leads to cancer cells' death. Therefore, inhibitors of DNA replication could specifically kill cancer cells. Based on this concept, many chemotherapeutic agents were developed and have been used to treat cancer patients. However, there are a limited number of agents available in the clinical setting, and some of those that do exist have low efficacy and severe side effects. Therefore, if we can find the compounds that effectively block DNA replication either by directly damaging DNA or by inhibiting other cellular mechanisms, the options for cancer treatment will be broadened. With this in mind, we developed a quantitative high-throughput ELG1-luciferase reporter gene assay. Small molecules that specifically block ELG1 function in response to DNA damage can be identified by monitoring the suppression of luciferase activity. Since ELG1 defines a pathway for repairing DNA damage, agents blocking ELG1 function can be used to sensitize cancer cells to chemotherapeutic agents whose mechanism of action involves the induction of DNA damage.
Assay Protocol Summary: For genotoxicity screening, 2,000 cells in 4 uL/well were dispensed into white, solid-bottom 1536-well plates using a solenoid-based dispenser. Following transfer of 1 uL 5-Fluorouridine and 23 nL compound or DMSO vehicle by a pin tool, the plates were incubated 16 hr at 37 °C and 5% CO2. 5 ul ONE-Glo (Promega) was then added to each plate and following a 30 min incubation at room temperature, luciferase activity was quantified on a ViewLux CCD-based plate reader.
Potency means the concentration at half of the fitted maximal effect.

**Q.** For O=[N+]([O-])c1cc(Cl)c2cccnc2c1O, which Potency is on record?
**A.** inconclusive: 29.1 µM [inhibitor, single point]

**Q.** Which Potency does the source give for CCOC(=O)C1=C(C)N=c2s/c(=C\c3ccncc3)c(=O)n2C1c1ccc2c(c1)OCO2 (centres undefined) here?
**A.** inconclusive: 13 µM [inhibitor, partial curve, poor fit]

**Q.** Which Potency does the source give for Cc1nn(-c2ccccc2)c(C)c1/C=C/C(=O)OCC(=O)NC1CCS(=O)(=O)C1 (centres undefined) here?
**A.** inconclusive: 20.6 µM [activator, single point]

**Q.** Which Potency does the source give for COc1cccc(NC(=O)C2CCCCC2)c1 here?
**A.** inconclusive: 29.1 µM [activator, single point]

**Q.** Which Potency does the source give for O=C(Nc1nnc(C(F)(F)F)s1)c1ccc(Br)s1 here?
**A.** inconclusive: 18.3 µM [activator, single point]

**Q.** Which Potency does the source give for COc1ccc(CCNC(=O)CN2C(=O)NC3(CCOc4ccccc43)C2=O)cc1 (centres undefined) here?
**A.** inactive

**Q.** For COc1ccccc1NC(=O)COC(=O)c1ccc([N+](=O)[O-])s1, which Potency is on record?
**A.** inactive

**Q.** With CCc1nnc(NC(=O)[C@@H](NC(=O)c2ccc(C(C)(C)C)cc2)C(C)C)s1 as the compound, how does the Potency read?
**A.** inactive

**Q.** With COc1ccc(CCNC(=O)Cc2ccsc2)cc1 as the compound, how does the Potency read?
**A.** inactive

**Q.** Which Potency does the source give for CC(=O)OCC1O[C@@H](O[C@@H]2C[C@H]3C(C)(C)[C@H](OC(C)=O)CC[C@]3(C)[C@H]3CC[C@]45C[C@]4(CC[C@H]5[C@@H](C)C[C@@H](O)[C@H](O)C(C)(C)O)[C@@]32C)[C@H](O)[C@@H](O)[C@@H]1O (some centres undefined) here?
**A.** inconclusive: 16.4 µM [inhibitor, single point]

**Q.** Which Potency does the source give for CCOc1ccc(NC(=O)c2ccc(CN3CCc4ccccc4C3)cc2)cc1 here?
**A.** inconclusive: 0.73 µM [inhibitor, single point]

**Q.** For Cc1cccc(-c2nsc(SCC(=O)Nc3nccs3)n2)c1, which Potency is on record?
**A.** inactive

**Q.** For CCCCCCCCCCCCC/C=C/[C@@H](O)[C@@H](N)CO, which Potency is on record?
**A.** inconclusive: 14.1 µM [activator, single point]

**Q.** For CCOC(=O)c1c(C)oc2c(F)c(F)c(F)c(F)c2c1=O, which Potency is on record?
**A.** inconclusive: 29.1 µM [inhibitor, single point]

**Q.** For COc1cc(NC(=O)Nn2cnnc2)cc(OC)c1OC, which Potency is on record?
**A.** inactive

**Q.** Which Potency does the source give for O=C(Nc1ccc(S(=O)(=O)Nc2ccc(F)cc2)cc1)c1ccc(CN2CCOCC2)cc1 here?
**A.** inconclusive: 23.1 µM [inhibitor, single point]

**Q.** Which Potency does the source give for CCOC(=O)c1ccc(S(=O)(=O)N2CCN(C(=O)c3nn(C)c(=O)c4ccccc34)CC2)cc1 here?
**A.** inactive

**Q.** For O=C(C[n+]1cnn(CC(=O)c2ccc(Cl)cc2Cl)c1)c1ccc([N+](=O)[O-])cc1, which Potency is on record?
**A.** inactive

**Q.** For CCc1cccc2c(C(=O)CSc3nncn3-c3ccc(OC)cc3)c[nH]c12, which Potency is on record?
**A.** inconclusive: 14.6 µM [inhibitor, partial curve, poor fit]

**Q.** For CCc1ccccc1OCC(=O)Nc1cccc(S(=O)(=O)NC2=NCCCCC2)c1, which Potency is on record?
**A.** inactive

**Q.** Which Potency does the source give for COc1ccc(-c2noc(CCC(=O)NCC3CCN(Cc4cccc(C)c4)CC3)n2)cc1 here?
**A.** inconclusive: 20.6 µM [inhibitor, single point]

**Q.** With CCOC(=O)N1CCN(c2nc3ccccn3c(=O)c2C=O)CC1 as the compound, how does the Potency read?
**A.** inconclusive: 0.0517 µM [inhibitor, full curve, poor fit]

**Q.** For CCOC(=O)N1CCC(NC(=O)c2cc3c(-c4ccc(OC)c(OC)c4)nn(C)c3s2)CC1, which Potency is on record?
**A.** active: 7.31 µM

**Q.** For Cc1cc(C)nc(N=Nc2c(O)n(Cc3ccc(Cl)cc3)c3ccccc23)n1, which Potency is on record?
**A.** active: 23.1 µM

**Q.** With Cc1cc(/C=N/NC(=O)c2ccccn2)c(C)n1-c1cccc([N+](=O)[O-])c1 as the compound, how does the Potency read?
**A.** inconclusive: 29.1 µM [activator, single point]

**Q.** Which Potency does the source give for CCNc1nc(NCC)n2c(SCC(=O)Nc3ccc(C)cc3Br)nnc2n1 here?
**A.** inactive

**Q.** Which Potency does the source give for O=C(C1CCC1)N1CCCc2cc(S(=O)(=O)N3CCN(c4ccccc4)CC3)ccc21 here?
**A.** inactive

**Q.** With COc1ccc(CNC(=S)NC2CCCCC2)cc1 as the compound, how does the Potency read?
**A.** inactive

**Q.** Which Potency does the source give for O=C(COC(=O)c1c(F)cccc1Cl)NC1CCCC1 here?
**A.** inconclusive: 14.6 µM [activator, partial curve]

**Q.** With O=C(N1CCOCC1)N1CCN(c2nc(-c3ccc(F)cc3)cs2)CC1 as the compound, how does the Potency read?
**A.** inactive

**Q.** For COC(=O)N/N=C/c1ccc(-c2cc(Cl)cc(Cl)c2)o1, which Potency is on record?
**A.** inactive

**Q.** With CCc1nnc(NC(=O)c2ccc(S(=O)(=O)N(CC(C)C)CC(C)C)cc2)o1 as the compound, how does the Potency read?
**A.** inconclusive: 16.4 µM [inhibitor, partial curve, poor fit]

**Q.** With Cc1ccc(/C=C(\C#N)C(=O)N2CCCC2)c(C)c1 as the compound, how does the Potency read?
**A.** inconclusive: 29.1 µM [activator, partial curve]

**Q.** For O=C(O)/C=C/C(=O)Nc1ccccc1C(=O)OCC(=O)c1ccc2c(c1)OCCO2, which Potency is on record?
**A.** inconclusive: 25.9 µM [activator, single point]

**Q.** With COc1ccc(OC)c(-c2csc(NC(=O)C3COc4ccccc4O3)n2)c1 (centres undefined) as the compound, how does the Potency read?
**A.** inconclusive: 20.6 µM [inhibitor, single point]

**Q.** For O=C(CN1CCN(S(=O)(=O)c2ccc(F)cc2)CC1)NCC1(N2CCOCC2)CCCCC1, which Potency is on record?
**A.** inactive

**Q.** For CCOc1ccc(-c2c(C(=O)N/N=C/c3ccc(Cl)cc3)nnn2-c2nonc2N)cc1, which Potency is on record?
**A.** inactive

**Q.** Which Potency does the source give for CC1=C(C(=O)OCc2ccccc2)C(c2ccc(-c3ccccc3)cc2)NC(=O)N1CCCCCC(=O)O (centres undefined) here?
**A.** inconclusive: 16.4 µM [activator, partial curve, poor fit]

**Q.** For O=C(CSc1ncnc2scc(-c3ccc(Cl)cc3)c12)NCc1ccc2c(c1)OCO2, which Potency is on record?
**A.** inconclusive: 16.4 µM [inhibitor, partial curve, poor fit]

**Q.** With CCN(CC)S(=O)(=O)c1ccc(N2CCN(C)CC2)c(NC(=O)Nc2ccc(C)cc2)c1 as the compound, how does the Potency read?
**A.** inconclusive: 29.1 µM [inhibitor, single point]

**Q.** For O=C(CN1C(=O)S/C(=C\c2ccc(C(=O)O)cc2)C1=O)Nc1ccccc1, which Potency is on record?
**A.** inconclusive: 9.2 µM [inhibitor, partial curve, poor fit]

**Q.** For COc1cccc(OCc2nc3c4cnn(-c5ccccc5)c4ncn3n2)c1, which Potency is on record?
**A.** inconclusive: 32.6 µM [activator, partial curve, poor fit]

**Q.** For COC(=O)c1ccc(S(=O)(=O)N2CCCN(Cc3ccc(F)cc3)CC2)n1C, which Potency is on record?
**A.** inconclusive: 25.9 µM [inhibitor, single point]

**Q.** With O=C(NC(=S)N1CCN(c2ccccn2)CC1)c1ccco1 as the compound, how does the Potency read?
**A.** inactive

**Q.** With CN(C/C=C/c1ccccc1[N+](=O)[O-])Cc1ccccc1 as the compound, how does the Potency read?
**A.** inconclusive: 31.6 µM [activator, single point]

**Q.** With O=C1C(C=NCCN2CCOCC2)=C(O)c2ccccc21 as the compound, how does the Potency read?
**A.** inconclusive: 9.2 µM [activator, partial curve]

**Q.** With O=C(O)c1ccc(NC(=S)NC(=O)c2ccc3ccccc3c2)cc1 as the compound, how does the Potency read?
**A.** inconclusive: 10.3 µM [activator, partial curve]

**Q.** For COc1c(N)c2ccccc2[nH]c1=O, which Potency is on record?
**A.** inconclusive: 23.1 µM [activator, partial curve]

**Q.** With O=C(CCc1ccccc1)Nc1cc2c(cc1Cl)OCCO2 as the compound, how does the Potency read?
**A.** inconclusive: 9.2 µM [activator, partial curve]

**Q.** With S=C(NCCN1CCOCC1)Nc1ccc(-c2nc3ccccc3[nH]2)cc1 as the compound, how does the Potency read?
**A.** inactive

**Q.** With COc1ccccc1C(=O)COC(=O)c1cccs1 as the compound, how does the Potency read?
**A.** inconclusive: 20.6 µM [activator, partial curve]

**Q.** For COC(=O)c1c(-c2snnc2C)n[nH]c1C, which Potency is on record?
**A.** inconclusive: 29.1 µM [activator, single point]

**Q.** For CS(=O)(=O)c1ccc(-c2sc3ccccc3c2C(=O)N2CCN(c3ccc(F)cc3)CC2)cc1, which Potency is on record?
**A.** inconclusive: 1.16 µM [activator, full curve]

**Q.** For Cc1c(-c2ccc(F)cc2)[n+](=O)c2c(n1[O-])CCCCC2, which Potency is on record?
**A.** inconclusive: 0.82 µM [inhibitor, single point]

**Q.** Which Potency does the source give for COc1ccc(OC)c(Nc2cc(-c3ccccc3)nc(N)n2)c1 here?
**A.** inactive

**Q.** Which Potency does the source give for CC(C)Cc1nnc(NC(=O)CCC(=O)NC2CCCC2)s1 here?
**A.** inactive

**Q.** Which Potency does the source give for O=C(COc1ccc2c3c(c(=O)oc2c1)CCC3)NCc1cccnc1 here?
**A.** inactive

**Q.** For Cc1cccc(NC(=O)CSc2cc(C)c(C#N)c3nc4ccccc4n23)c1, which Potency is on record?
**A.** inconclusive: 29.1 µM [activator, single point]

**Q.** Which Potency does the source give for O=C(Nc1cccc(NC(=O)c2ccccc2F)c1)c1ccccc1 here?
**A.** inactive

**Q.** Which Potency does the source give for Cc1ccc(S(=O)(=O)N2CCOCC2)cc1NC(=O)CSc1nnc2cc(C)c3ccccc3n12 here?
**A.** active: 18.4 µM

**Q.** With CNS(=O)(=O)c1cccc(C(=O)OCC(=O)Nc2ccc(Cl)cc2F)c1 as the compound, how does the Potency read?
**A.** inconclusive: 23.1 µM [activator, single point]

**Q.** With CCN(CC)S(=O)(=O)c1cccc(C(=O)NC2=NCCS2)c1 as the compound, how does the Potency read?
**A.** inactive

**Q.** With Cc1ccc(S(=O)(=O)Nc2cccc3c2O[C@H](CN(C)C(=O)Nc2ccc(C(F)(F)F)cc2)[C@@H](C)CN([C@H](C)CO)C3=O)cc1 as the compound, how does the Potency read?
**A.** inactive

**Q.** Which Potency does the source give for CC(C)N(Cc1nccn1C)C(=O)c1cc(COc2ccc3ncccc3c2)on1 here?
**A.** inactive

**Q.** Which Potency does the source give for CCOc1ccc(C(C(=O)Nc2ccc(F)cc2)N(C(=O)Cn2nnc3ccccc32)C2CC2)cc1 (centres undefined) here?
**A.** inconclusive: 9.2 µM [inhibitor, partial curve]

**Q.** With CCN(Cc1nc2ccccc2c(=O)[nH]1)C(=O)COc1ccccc1-c1ccccc1 as the compound, how does the Potency read?
**A.** inconclusive: 13 µM [inhibitor, partial curve, poor fit]

**Q.** With C=CCOC(=O)C(=O)/C=C/c1ccc2c(c1)Cc1ccccc1-2 as the compound, how does the Potency read?
**A.** inconclusive: 20.6 µM [activator, partial curve, poor fit]

**Q.** With COc1ccccc1N1CCN(CC(=O)Nc2sccc2C#N)CC1 as the compound, how does the Potency read?
**A.** inconclusive: 29.1 µM [inhibitor, single point]

**Q.** For O=C(NCCc1ccccc1)c1cnc2sccn2c1=O, which Potency is on record?
**A.** inconclusive: 13 µM [activator, partial curve]
